Measurements: the supplement of paper PMC12823440, “Inhibitors supercharge kinase turnover through native proteolytic circuits” (Nature, 2025)
Where a name gives a salt, the structure may show the parent alone. Some of the results follow. Hit calls seldom repeat between salt and free forms of one compound.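 Kinases, fused to nanoluciferase, were expressed in K562 cells; luminescence was measured every 4 h from 2 to 18 h as percent of control (DMSO = 100%, positive control = 0%). A time point is decreased if signal falls significantly (2 sigma). Hits were called by the authors by a rule that is not shown; the count of time points alone does not decide it.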

Chains of the proteins cited; added tags and fusions are not shown.
UniProt P31152, whole entry: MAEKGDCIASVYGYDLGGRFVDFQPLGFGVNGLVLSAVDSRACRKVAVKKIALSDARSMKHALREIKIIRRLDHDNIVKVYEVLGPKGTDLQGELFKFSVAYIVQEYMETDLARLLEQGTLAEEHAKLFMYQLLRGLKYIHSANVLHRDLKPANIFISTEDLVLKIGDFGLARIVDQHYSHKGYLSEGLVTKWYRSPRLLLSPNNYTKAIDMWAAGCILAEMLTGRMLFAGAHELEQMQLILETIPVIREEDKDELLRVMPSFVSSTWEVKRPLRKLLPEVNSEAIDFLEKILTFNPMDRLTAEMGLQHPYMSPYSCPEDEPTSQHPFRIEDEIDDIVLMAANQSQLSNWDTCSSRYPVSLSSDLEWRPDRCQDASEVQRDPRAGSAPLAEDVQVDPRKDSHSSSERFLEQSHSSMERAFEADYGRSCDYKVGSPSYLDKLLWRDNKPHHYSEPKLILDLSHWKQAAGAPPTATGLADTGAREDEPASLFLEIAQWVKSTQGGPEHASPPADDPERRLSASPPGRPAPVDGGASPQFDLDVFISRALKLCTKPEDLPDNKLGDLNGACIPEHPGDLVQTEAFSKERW

Target: MAPK4 (UniProt P31152)
Assay: kinase-Nluc reporter destabilization hit call (1 = scored as downregulated) (binary); higher = compound decreases kinase abundance
Settings: K562; 2-18 h

kinase-Nluc reporter destabilization hit call, inactive:
CN(C)c1nc2c(Br)c(Br)c(Br)c(Br)c2n1CC(=O)O (10 µM) 0
COc1cc(N2CCC(N(C)C)CC2)ccc1Nc1ncc(Cl)c(Nc2ccccc2P(C)(C)=O)n1 (2.5 µM) 0
CC(C)C[C@H](NC(=O)[C@H](CCCCN)NC(=O)[C@H](CO)NC(=O)[C@@H](N)CC(C)C)C(N)=O [LSKL, Inhibitor of Thrombospondin (TSP-1) (TFA)] (10 µM) 0
O=C(Nc1ccc(Cl)c(Cl)c1)Nc1ccc2nnsc2c1 (10 µM) 0
CC(C)Oc1ccc(-c2cnc3c(-c4ccnc5ccccc45)cnn3c2)cc1 (10 µM) 0
O=C(CCCCCn1cc(Nc2ncc(Cl)c(Nc3ccc(Cl)cc3)n2)cn1)NO (2.5 µM) 0
CC(=O)NCCc1c[nH]c2ccc(O)cc12 [N-Acetyl-5-hydroxytryptamine] (10 µM) 0
O=C(c1ccc(Nc2nccc(-c3cc4ccccc4s3)n2)cc1)N1CCC(N2CCCC2)CC1 (2.5 µM) 0
C=CC(=O)N1CCC[C@@H](n2nc(C(=O)Nc3ccc(CC(=O)N(C)C)c(C)c3C)c3c(N)ncnc32)C1 (10 µM) 0
CC(CCc1ccccn1)(CCc1ccccn1)C(=O)c1ccccc1 (10 µM) 0
CC[C@@H]1[C@H](F)C(=O)N[C@@H]1COc1nccc2cc(C(N)=O)c(OC)cc12 (10 µM) 0
Nc1cc(C(F)F)c(-c2nc(N3C4CCC3COC4)nc(N3C4CCC3COC4)n2)cn1 (2.5 µM) 0

Two records picked at random from those above:
kinase-Nluc reporter destabilization hit call, inactive:
O=C(Nc1ccc(Cl)c(Cl)c1)Nc1ccc2nnsc2c1 (10 µM) 0
Nc1cc(C(F)F)c(-c2nc(N3C4CCC3COC4)nc(N3C4CCC3COC4)n2)cn1 (2.5 µM) 0
